# Source: PubChem BioAssay AID2417 (National Center for Advancing Translational Sciences (NCATS), 2010)
# Hit rate of the full screen: of about 140,000 compounds, about 4,300 (3.1%) were called active. This list was built around the results that the source calls inconclusive (neither active nor inactive); the mix of calls is not that of the screen.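 The calls were made as follows: active = readout at or below -70, meaning at least 70% loss of cells showing the perinucleolar compartment, a nuclear body marking cancer cells; inconclusive = readout between -30 and a set limit; inactive = the rest.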
# Experiment: High Content Assay for Compounds that inhibit the Assembly of the Perinucleolar Compartment;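 also: plate controls were DMSO wells for no effect and camptothecin positive control wells for full effect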
# Settings: PC3M PTB-GFP, PNC prevalence imaging, 16 h; at 10 µM; stronger effect = lower value
# Method in brief: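 Read-out is percentage of cells bearing a perinucleolar compartment, from automated 20x imaging of fixed, Hoechst-stained PC3M PTB-GFP cells. Cells were seeded 4 h, then exposed 16 h to compound (23 nl of library stock) in duplicate plates.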
row,Structure (SMILES),"activity change (PNC), negative = inhibition"
1,CC(=O)/C(C#N)=C1\NC(=O)C(Cc2ccc(C)c(C)c2)S1 (stereo unspecified),active: -108%
2,COc1ccc(CNC(=O)c2cc(-c3ccccc3OC)on2)cc1,inconclusive: -36.6%
3,C/C=C/c1ccc(OCCSc2nc(C)cc(=O)[nH]2)c(OC)c1,inactive: 0.786%
4,C/C(=C\C(=S)Nc1ccccc1)Nc1cccc2ccccc12,inconclusive: -55.4%
5,CC1CCCCN1C(=O)Cn1cc(C(=O)c2ccco2)c2ccccc21 (stereo unspecified),inconclusive: -34%
6,O=C(CSc1nc2ccccc2s1)NNC(=O)Nc1ccc(Cl)c(Cl)c1,inconclusive: -58.9%
7,CCOC(=O)c1cnc(SC)nc1Sc1ccccc1,inactive: -28.5%
8,COc1ccccc1N1CCN(C(c2ccccc2)c2nnnn2CCc2ccccc2)CC1 (stereo unspecified),inactive: 353%
9,Cc1nnc(SCC(=O)N2c3ccccc3CC2C)[nH]c1=O (stereo unspecified),inactive: 46.5%
10,COc1cc(CNCc2ccccn2)ccc1OCC(N)=O,inconclusive: -35.2%
11,Cc1[nH]n(-c2ccccc2)c(=O)c1C(c1cccc([N+](=O)[O-])c1)c1c(C)[nH]n(-c2ccccc2)c1=O,inactive: -26.5%
12,CC(=O)Nc1ccc2[nH]c(C)c(CC=C(Cl)Cl)c(=O)c2c1,inconclusive: -54%
13,CC(C)(C)CC(=O)Nc1nnc(C(F)(F)F)s1,inconclusive: -30.1%
14,CCN(CCCNC(=O)C1CCC(=O)N1Cc1ccccc1Cl)c1cccc(C)c1 (stereo unspecified),inconclusive: -68.7%
15,O=C(Nc1ccc(Cn2cccn2)cc1)c1ccc(COc2cccc(Br)c2)cc1,inconclusive: -30.6%
16,O=C(NCCCN1CCOCC1)c1cc(-c2ccccc2)on1,inconclusive: -55.7%
17,Cc1ccc(C(O)CN2C3=NCCN3c3ccccc32)cc1 (stereo unspecified),inconclusive: -42.1%
18,Cn1cc(Cl)c(-c2n[nH]c(=S)n2-c2ccccc2)n1,inactive: 21.7%
19,COc1cccc(NC(=O)CSc2nnc(Cn3cnc([N+](=O)[O-])n3)n2C)c1,inconclusive: -55.6%
20,CC(=O)N1CCN(c2ccc(N=Cc3c(O)n(Cc4ccccc4)c(=O)[nH]c3=O)cc2)CC1,inconclusive: -64.3%
21,CC1=C(C#N)C(C(F)(F)F)(C(F)(F)F)N=C(c2ccco2)N1,inconclusive: -58.7%
22,O=C(NCc1cccc(Cl)c1)c1cccc(C(F)(F)F)c1,inconclusive: -41.1%
23,COC(=O)c1ccc(C(=O)Nc2cc(Cl)ccc2Cl)cc1NC(=O)c1ccc(N(C)C)cc1,inactive: 14.6%

row,Structure (SMILES),"activity change (PNC), negative = inhibition"
1,Cc1ccc2cc3c(NC(=O)C4CCCO4)nn(CC(C)C)c3nc2c1 (stereo unspecified),inconclusive: -36.5%
2,CCOC(=O)C1CCCN(c2ncnc3c2cnn3-c2ccc(OC)cc2)C1 (stereo unspecified),inconclusive: -60.6%
3,Cc1cc(C)cc(NC(=S)NCCCN2CCOCC2)c1,inactive: 26.5%
4,COCCN1C=C(C(=O)OC)C(c2cc(Br)c(OC)c(OC)c2)C(C(=O)OC)=C1,inconclusive: -73.1%
5,COc1ccccc1NC(=O)CSc1nccc(=O)[nH]1,inconclusive: -35.7%
6,CN(/C(=N\S(=O)(=O)c1ccccc1)C(F)(F)F)c1ccccc1,inactive: 25%
7,COc1ccc(Nc2ccc(N3C(=O)CCCC3=O)cc2[N+](=O)[O-])c(OC)c1,inconclusive: -39.6%
8,N#Cc1ccc(C(=O)Nc2nc(-c3cccs3)c(C(=O)C(F)(F)F)s2)cc1,inconclusive: -35.4%
9,O=C(CCNc1ccccc1)c1cccc([N+](=O)[O-])c1,inactive: -21%
10,CCN(CC)c1ccc2c(c1)OC(N)=C(C#N)C2c1cccnc1 (stereo unspecified),active: -99%
11,COc1ccc(CCNc2nc(-c3sc(N)nc3C)cs2)cc1OC,active: -108%
12,CC(=O)OCC#CCSc1nc2ccccc2n1C,inconclusive: -62.1%
13,COC(=O)c1cccc(S(=O)(=O)N2CCOCC2)c1,inactive: 4.36%
14,CCOc1ccc(N2CSC3=C(C#N)C(c4ccco4)CC(=O)N3C2)cc1 (stereo unspecified),inactive: 52.6%
15,Cc1ccc(NC(=O)C2CCN(S(=O)(=O)c3c(C)noc3/C=C/c3ccco3)CC2)nc1,inconclusive: -74.9%
16,Cc1cc2ncc(-c3ncc(C(F)(F)F)cc3Cl)cn2n1,active: -80.9%
17,CCCCCCSc1cc(C)nc2ncnn12,inconclusive: -57.8%
18,COc1ccc(-c2nnc(SCC(=O)Nc3sc4c(c3C#N)CCCC4)n2-c2ccccc2)cc1,active: -86%
19,CCn1c(C2CC(=O)N(c3ccc(C)c(C)c3)C2)nc2ccccc21 (stereo unspecified),inconclusive: -43.6%
20,Cc1ccccc1NC(=S)N(C)Cc1cn(C)c2ccccc12,inconclusive: -32.7%
21,O=C(NCc1ccco1)c1nc2c(nnn2Cc2cccc(Cl)c2)c(=O)[nH]1,inactive: 56.9%
22,Cc1ccccc1NC(=O)c1cc(N)ccc1N1CCCCC1,inconclusive: -59%
23,COc1cccc(C2C(C#N)=C(N)OC3=C2C(=O)CC(c2ccco2)C3)c1OCc1ccc(F)cc1 (stereo unspecified),inactive: 11.8%

row,Structure (SMILES),"activity change (PNC), negative = inhibition"
1,Cc1sc(NC(=S)NC(=O)CCc2ccccc2)c(C(N)=O)c1C,active: -121%
2,COc1cccc(-c2nnc3sc(-c4ccco4)nn23)c1,inactive: 22.3%
3,Cc1ccc(C)c2[nH]c(=O)c(C(c3nnnn3C3CCCC3)N3CCOCC3)cc12 (stereo unspecified),inconclusive: -62.1%
4,Cc1nc(Nc2ccc3c(c2)OCCO3)c2nnn(Cc3ccccc3Cl)c2n1,inconclusive: -30.9%
5,Cc1ccccc1NC(=O)c1sc(Cl)nc1C,inconclusive: -69.6%
6,CC(C)(C)c1cnnn1-c1ccc(C(=O)CCl)cc1,inconclusive: -46.6%
7,COc1ccc(OC)c(-n2c(SCC(N)=O)nnc2-c2c[nH]c3ccccc23)c1,inactive: 22.7%
8,COc1ccc(NC(=O)CSc2nc(O)cc(=O)n2-c2ccccc2OC)cc1,inactive: -11.2%
9,CCNC(=O)NC1(C(=O)Nc2ccc3c(c2)OCCO3)CCCCC1,inconclusive: -62.7%
10,Cc1ccc(N=C2NC(=O)c3cccc([N+](=O)[O-])c32)cc1,inactive: 43.8%
11,Cc1ccc(C(=O)NC2CCN(C(=O)NC3CCCCC3)CC2)cc1,inconclusive: -40.7%
12,COc1ccc(-n2c(SCC(=O)Nc3ccccc3)nnc2-c2ccc(NS(=O)(=O)c3ccc(C)cc3)cc2)cc1,inactive: 29.3%
13,Cc1ccc(S(=O)(=O)N2CCOCC2)cc1C(=O)O,inconclusive: -35.3%
14,O=S1(=O)c2ccccc2N=NN1Cc1ccc(Cl)cc1,inactive: 8.25%
15,CCOc1ccc(NC(=O)CCNc2c(N3CCCC3)c(=O)c2=O)cc1,inconclusive: -63.8%
16,O=C1CSC(c2ccc(Cl)cc2)N1C1CCCCC1 (stereo unspecified),inactive: -10%
17,Cc1nc(NCC2CCCO2)nc2c1C(=O)CC(C)C2 (stereo unspecified),inconclusive: -39.4%
18,CCc1ccc(Sc2cc(C(=O)NCCN3CCOCC3)c3ccccc3n2)cc1,inconclusive: -58.4%
19,CCOC(=O)c1sc(NC(=O)CN2CCCC2)c(C(=O)OCC)c1C,inconclusive: -34.2%
20,C/C(=N\NC(=O)CNc1cccc(C(F)(F)F)c1)c1cccc(Br)c1,inconclusive: -53.5%
21,Cc1ccccc1C(=O)OC1OC(=O)C(Cl)=C1N1CCOCC1 (stereo unspecified),inconclusive: -38.1%
22,COc1ccc(-c2nc(C(N)=O)c3[nH]c(=O)n(-c4cccc(C)c4)c3n2)c(OC)c1,inconclusive: -47.1%
23,N#C/C(=C(\O)c1ccco1)c1ccccn1,inactive: 19.6%

# Fetched by structure from the entries so far, 4 records:
row,Structure (SMILES),"activity change (PNC), negative = inhibition"
13,Cc1ccc(S(=O)(=O)N2CCOCC2)cc1C(=O)O,inconclusive: -35.3%
21,Cc1ccccc1C(=O)OC1OC(=O)C(Cl)=C1N1CCOCC1 (stereo unspecified),inconclusive: -38.1%
22,COc1ccc(-c2nc(C(N)=O)c3[nH]c(=O)n(-c4cccc(C)c4)c3n2)c(OC)c1,inconclusive: -47.1%
10,Cc1ccc(N=C2NC(=O)c3cccc([N+](=O)[O-])c32)cc1,inactive: 43.8%

# Continuation:

row,Structure (SMILES),"activity change (PNC), negative = inhibition"
1,CCOC(=O)N1CCN(S(=O)(=O)c2cc(Br)cc3c2N(C(C)=O)C(C)C3)CC1 (stereo unspecified),inconclusive: -38.6%
2,Cc1ccc(S(=O)(=O)N(C)CCCC(=O)Nc2ccc(C)cc2C)cc1,inactive: 3.06%
3,COc1ccc(NS(=O)(=O)c2ccc(N)cc2)nn1,inactive: -14.8%
4,O=C(NNc1ccc([N+](=O)[O-])cc1)C1CC1c1ccccc1 (stereo unspecified),inactive: 23.4%
5,NC(=S)N/N=C/c1ccc(-c2ccc(Cl)c(Cl)c2)o1,inconclusive: -37.4%
6,O=C(/C=C/Nc1ccc(F)c(F)c1)c1ccc(Br)cc1,inactive: -29.3%
7,Cn1c(SCC(=O)Nc2ccccc2-c2ccccc2)nnc1-c1ccco1,inconclusive: -79.9%
8,O=C(Nc1nnc(SCc2ccc(F)cc2)s1)C1CC(=O)N(Cc2ccccc2)C1 (stereo unspecified),inactive: -24.7%
9,O=C(NCc1ccccc1)C12CN(Cc3ccccc3)CC1C(c1ccc([N+](=O)[O-])cc1)=NO2 (stereo unspecified),inconclusive: -34.2%
10,C=CCn1c(SCC(=O)N2CCN(c3ccccc3)CC2)nnc1-c1ccco1,inconclusive: -45.7%
11,Cc1ccc(C)c(OCCOCCN2CC(C)OC(C)C2)c1C (stereo unspecified),inconclusive: -30.8%
12,CC(=O)Nc1ccc(S(=O)(=O)Nc2ccc(S(=O)(=O)N3CCCCCC3)cc2)cc1,inactive: 4.27%
13,N#CCn1c(C2CCCCC2)nc2ccccc2c1=O,inconclusive: -34.3%
14,COc1ccccc1N1C(=O)C2CC=CC(C)C2C1=O (stereo unspecified),inconclusive: -41.5%
15,O=C(CCC(=O)OCC(=O)c1ccc(Cl)cc1)NC1CCCCC1,inconclusive: -61.2%
16,COc1cccc(C(=O)CSc2nnc(CNS(C)(=O)=O)n2-c2ccc(C)cc2)c1,inactive: -21.4%
17,Cc1ccc(/C=C/C(=O)N2CCc3ccccc32)o1,inactive: 18.8%
18,OCc1nc2ccccc2n1CCCOc1ccccc1,inconclusive: -61.5%
19,COc1cccc(C(=O)Nc2ccc(F)cc2F)c1,inconclusive: -66.4%
20,COc1cc(OC)c(OC)cc1CNC1CCCCCC1,inactive: -2.75%
21,COc1cccc(C=Nc2cccnc2)c1O,inactive: 11.2%
22,O=C(NC(C(=O)N/N=C/c1ccccc1)c1n[nH]c(=O)c2ccccc12)c1ccccc1 (stereo unspecified),inconclusive: -42.2%
